# Earlier results in patent publication US6090945A, “Tetrahydro-beta-carbolines” (Eli Lilly and Company, priority 1998, dated 2000).
# At least one compound was matched to its structure with a doubt left.
# Test system: 5-HT1c sites
# Settings: in vitro; cited from earlier work
compound,measurement,value
"Clc1cccc(N2CCNCC2)c1 [m-CPP, m-chlorophenylpiperazine]",affinity for 5-HT1c sites relative to other 5-HT receptors,slightly higher affinity for the 5-HT1c sites than for other 5-HT receptors
